Reference: article PMC10526732
These are yes or no findings as the source states them, for the method shown. Binding seen in cells or lysates may run through a third protein. A result given as binding can be weak or reduced; the word gives no strength. Blank lines part the entries; values can stand above or below the molecule they belong to.

Columns and labels:
[1] = biological target: T1, SNW1 (SNW domain containing 1) (human (endogenous in HPMEC-Im)) (UniProt Q13573); experiment: co-IP; IP with SNW1 antibody on protein A/G magnetic beads from 500 ug HPMEC-Im lysate, blotted for NICD; cells with sc shRNA or HDAC6 shRNA, with or without VEGF 50 ng/mL (45 min in the legend, 60 min in the methods)
T1 sequence: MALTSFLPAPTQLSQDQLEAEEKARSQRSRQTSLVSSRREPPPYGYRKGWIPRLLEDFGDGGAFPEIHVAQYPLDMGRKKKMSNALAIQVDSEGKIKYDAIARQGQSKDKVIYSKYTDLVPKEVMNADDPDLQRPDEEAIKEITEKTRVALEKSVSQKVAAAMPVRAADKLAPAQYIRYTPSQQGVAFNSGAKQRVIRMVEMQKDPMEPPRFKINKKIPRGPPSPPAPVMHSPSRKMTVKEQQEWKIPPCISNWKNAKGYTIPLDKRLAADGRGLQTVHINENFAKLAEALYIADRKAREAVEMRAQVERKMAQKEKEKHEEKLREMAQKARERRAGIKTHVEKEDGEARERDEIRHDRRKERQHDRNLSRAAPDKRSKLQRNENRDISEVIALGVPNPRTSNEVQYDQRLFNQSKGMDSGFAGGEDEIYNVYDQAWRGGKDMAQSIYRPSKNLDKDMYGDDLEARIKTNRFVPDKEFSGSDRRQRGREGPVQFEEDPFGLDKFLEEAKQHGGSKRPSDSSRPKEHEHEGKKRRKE

[2] = biological target: Notch intracellular domain (NICD) (human (endogenous in HPMEC-Im)); experiment: co-IP; IP with NICD antibody on protein A/G magnetic beads from 500 ug HPMEC-Im lysate, blotted for HDAC6 or SNW1; cells with sc shRNA or HDAC6 shRNA, with or without VEGF 50 ng/mL (45 min in the legend, 60 min in the methods)

binding [1]: binds
Molecule: Notch intracellular domain (NICD) (human (endogenous in HPMEC-Im)) (domain or fragment)

binding [2]: binds
B1: SNW1 (SNW domain containing 1) (protein, UniProt Q13573 1-536)
chain: T1 sequence
